Results published in article PMC6848426 (Rice, 2019).
Results are given in words; binding and its absence hold for the method and conditions named. For part of these data: Binding seen in cells or lysates may run through a third protein. Some binding calls cover weakened binding; strength is not graded here. Sequences can lack the tags named with a protein.

How the values were obtained:
[1] = biological target: T1, NYFP-OsSAPK9 (rice (Oryza sativa L.)) (UniProt Q75V57); assay: split reporter; BiFC in Agrobacterium-infiltrated N. benthamiana leaves, NYFP and CCFP fusions, confocal microscopy 48-72 h after infiltration
T1 sequence: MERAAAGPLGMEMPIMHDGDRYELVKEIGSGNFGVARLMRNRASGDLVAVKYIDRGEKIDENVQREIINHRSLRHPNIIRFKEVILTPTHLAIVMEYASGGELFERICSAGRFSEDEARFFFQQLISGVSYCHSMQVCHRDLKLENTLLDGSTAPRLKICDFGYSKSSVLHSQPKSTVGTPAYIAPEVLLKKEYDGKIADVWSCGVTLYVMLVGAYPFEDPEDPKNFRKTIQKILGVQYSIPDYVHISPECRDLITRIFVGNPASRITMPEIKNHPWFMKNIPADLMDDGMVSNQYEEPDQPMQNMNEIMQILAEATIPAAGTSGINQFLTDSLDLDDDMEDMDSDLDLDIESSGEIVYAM

[2] = biological target: T2, GFP-OsSAPK9 (rice (Oryza sativa L.)) (UniProt Q75V57); assay: co-IP
T2 sequence: T1 sequence

[3] = biological target: T3, BD-OsSAPK9 (rice (Oryza sativa L.)) (UniProt Q75V57); assay: two-hybrid
T3 sequence: T1 sequence

B1: CCFP-OsSGT1 (protein, UniProt Q0JL44 1-367)
chain: MATAAASDLESKAKAAFVDDDFELAAELYTQAIEASPATAELYADRAQAHIKLGNYTEAVADANKAIELDPSMHKAYLRKGAACIRLEEYQTAKAALELGYSFASGDSRFTRLMKECDERIAEELSEVPVKKAEDGAAAPSVASFVEEKDDAANMDNTPPMVEVKPKYRHDFYNSATEVVLTIFAKGVPAENVVVDFGEQMLSVSIEVPGEEPYHFQPRLFSKIIPEKSRYQVLSTKVEIRLAKAEQITWTSLDYDKKPKAVPQKIIPPAESAQRPSYPSSKSKKDWDKLEAEVKKEEKEEKLEGDAALNKFFRDIYSDADEDMRRAMMKSFVESNGTVLSTNWKDVGSKKVEGSPPDGMELKKWEY
binding [1]: binds

B2: MYC-OsSGT1 (protein, UniProt Q0JL44 1-367)
chain: B1 chain
binding [2]: binds

B3: ΔTPR of OsSGT1 (yeast two-hybrid) (domain or fragment, UniProt Q0JL44 108-367)
chain: SRFTRLMKECDERIAEELSEVPVKKAEDGAAAPSVASFVEEKDDAANMDNTPPMVEVKPKYRHDFYNSATEVVLTIFAKGVPAENVVVDFGEQMLSVSIEVPGEEPYHFQPRLFSKIIPEKSRYQVLSTKVEIRLAKAEQITWTSLDYDKKPKAVPQKIIPPAESAQRPSYPSSKSKKDWDKLEAEVKKEEKEEKLEGDAALNKFFRDIYSDADEDMRRAMMKSFVESNGTVLSTNWKDVGSKKVEGSPPDGMELKKWEY
binding [3]: binds
